± gives the standard deviation. This is a selection; strong and weak results do not stand in their true shares. Many entries were measured with a wide error.

The first assay deals with MILI (PIWIL2) piRISC loaded with L1MC piRNA (26 nt). The assay is described as follows: pre-steady-state target cleavage rate (min^-1); MIWI and MILI are mouse PIWI proteins and EfPiwi is from a freshwater sponge; tags in brackets are library labels; higher = faster piRNA-guided slicing of the target. Conditions: guide: L1MC piRNA 5'p-UAACUAAAUACUAUGCAAGCUGUAGG; auxiliary factor: 500 nM mouse GTSF1. As to the method:
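Cleave-'n-Seq: a library of target RNAs (target site embedded in constant flanks, ACAGCATTCCGCGTTAGTGATATCCG... 5' flank; DNA-blocked outside the site) at 0.1 nM was incubated with 1 nM active mouse MILI or MIWI piRISC (synthetic 5'-monophosphorylated piRNA guide) with or without 500 nM mouse GTSF1 at 33 °C for 1 min to 16 h. Uncleaved targets were sequenced and normalised to non-target controls, and the pooled three trials were fitted to a burst-and-steady-state model to give the pre-steady-state cleavage rate (min^-1; k3 is constrained to at most 1e-4). Sequence is the target site only; target names encode pairing extent (gX:gY) and contiguous / 1-mismatch / 2-mismatch / bulge geometry. Fits with R² ≤ 0 are excluded.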
UCCUGGAUGAGCUUGGAUAGUAAUUAGUUA: the “pre-steady-state target cleavage rate” value came out at 0.1 ± 0.02.
As for UCCUGGAUGUCGUUGCAUAGUAUUUUGAUA, the “pre-steady-state target cleavage rate” value is 0.00115 ± 0.011.
For UCCUCCUAGUCCUUGCAUAGUAUUUAGUAA, the “pre-steady-state target cleavage rate” value is 0.102 ± 0.018.
Regarding “UCCUGGUACAGCUUGCAUAGUAUUUAGUUU [g2:g24:cont:t1U]”, the “pre-steady-state target cleavage rate” value was 0.249 ± 0.016.
As to UCCUCCUACAGCUUGCAUAGAUUUUUCAAA, the “pre-steady-state target cleavage rate” value stood at 0.0441 ± 0.013.
Turning to UCCUGGAUGUCCUUCGUUAGUAUUUAGUUA, the “pre-steady-state target cleavage rate” value was found to be 0.00219 ± 0.0059.
The same measure, in the same setting: in the case of UCCUGGAUGUCGAUGCAUAGUAUUUAUUA it was 0.00695 ± 0.0047; in that of UCCUGCUACAGCUUGCAUAGAUUUUACAAA, 0.00852 ± 0.0044; in that of UCCUCCUACAGCUUGCAUAGUAAAUACAAA, 0.0608 ± 0.018.
On to UCCUGGAUGUGCUUGUAUAGUAUUUAGUUA, for which the “pre-steady-state target cleavage rate” value stood at 0.142 ± 0.017.
As for UCCUGCUUCAGCUUGCAUAGUAUUUAGUAA, the “pre-steady-state target cleavage rate” value was determined as 0.224 ± 0.025.
Turning to UCCUGGUACAGCUUGCAUAGUAAUUACUUA, the “pre-steady-state target cleavage rate” value amounted to 0.00729 ± 0.0052.

The same assay, now with this note: guide: L1MC piRNA 5'p-UAACUAAAUACUAUGCAAGCUGUAGG; auxiliary factor: none (no GTSF1).
As for UCCUGGUUGUGCUUGCAUAGUAUUUUCAAA, the “pre-steady-state target cleavage rate” value turned out to be 0.00137 ± 0.0049.
On the same count and under the same terms, in the case of UCCUGGAUGUCGAAGCAUAGUAUAUAGUAA it was 0.00037 ± 0.015; in that of UCCUGGAUGAGCUUGGAUAGUAAUUAGUUA, 0.00311 ± 0.0026.
Still for that read-out and setting: the value for UCCUGGAUGUCGUUGCAUAGUAUUUUGAUA was 0.000583 ± 0.0094.
For the sequence UCCUGGAUGUCGUUGCAUAGUAAUUAGAUA, the “pre-steady-state target cleavage rate” value amounted to 0.000623 ± 0.0077.
Still for that read-out and setting: in the case of UCCUCCUAGUCCUUGCAUAGUAUUUAGUAA it was 0.0027 ± 0.0023; in that of “UCCUGGUACAGCUUGCAUAGUAUUUAGUUU [g2:g24:cont:t1U]”, 0.0218 ± 0.0053; in that of UCCUGCUACAGCUUGCAUAGAUAUUAGUAA, 0.000202 ± 0.017.
UCCUGGAAGAGCUUGCAUAGUAUUUUCAAA: the “pre-steady-state target cleavage rate” value was 0.000145 ± 0.02.
On the same count and under the same terms, in the case of UCCUCCUACAGCUUGCAUAGAUUUUUCAAA it was 0.00124 ± 0.005; in that of UCCUGGAUGAGCUUCCAUACUAUUUAGUUA, 0.000429 ± 0.012.
Turning to UCCUGCUACAGCUUGCAUACAAUUUUCAAA, the “pre-steady-state target cleavage rate” value was 0.00107 ± 0.0054.
For UCCUGCUACAGCUUGCAAUCUAUUUUCAAA, the “pre-steady-state target cleavage rate” value worked out at 0.000102 ± 0.029.
For UCCUGGAUGUCCUUCGUUAGUAUUUAGUUA, the “pre-steady-state target cleavage rate” value came out at 0.0008 ± 0.0075.
With UCCUGGAUGUCGAUGCAUAGUAUUUAUUA, the “pre-steady-state target cleavage rate” value is 0.000422 ± 0.013.
Take UCCUGGAUGUCCUUGCAUAGUAAUUUGUUA: the “pre-steady-state target cleavage rate” value was 0.00125 ± 0.0043.
For UCCUGCUACAGCUUGCAUAGAUUUUACAAA, the “pre-steady-state target cleavage rate” value was 0.000258 ± 0.0099.
For the sequence UCCUGGAUGACCUUGCAUAGUAUUUACUUA, the “pre-steady-state target cleavage rate” value came out at 0.00248 ± 0.0044.
Consider UCCUGGAUCAGCUUGCGAUAGUAUUUAGUUA, for which the “pre-steady-state target cleavage rate” value was found to be 0.000707 ± 0.0076.
As to UCCUCCUACAGCUUGCAUAGUAAAUACAAA, the “pre-steady-state target cleavage rate” value came out at 0.000939 ± 0.006.
On the same count and under the same terms, in the case of UCCUCCUACAGCUUGCAUAGUAUUAUCUAA it was 0.00137 ± 0.0044.
UCCUGGAUGUGCUUGUAUAGUAUUUAGUUA: the “pre-steady-state target cleavage rate” value was 0.0136 ± 0.004.
With UCCUGGAUCAGCUUGCAUAGUAUAAAGAAA, the “pre-steady-state target cleavage rate” value amounted to 0.00137 ± 0.0039.
Take UCCUGGUACAGCUUCGAUAGUAUUUUCAAA: the “pre-steady-state target cleavage rate” value was found to be 0.00112 ± 0.0063.
In the case of UCCUGGAUGUCGUUGGAUUGUAUUUAGUUA, the “pre-steady-state target cleavage rate” value was 0.000178 ± 0.04.
As for UCCUGGAUGUCCUAGCAUAGUAUUUAGUAA, the “pre-steady-state target cleavage rate” value worked out at 0.00189 ± 0.0037.
As for UCCUGCUUCAGCUUGCAUAGUAUUUAGUAA, the “pre-steady-state target cleavage rate” value turned out to be 0.00397 ± 0.002.
Take UCCUGGAUGUCGAUGCAUAGUAUAUUGUUA: the “pre-steady-state target cleavage rate” value is 0.00186 ± 0.0049.
Still for that read-out and setting: in the case of UCCUGGUACAGCUUGCAUAGUAAUUACUUA it was 0.00166 ± 0.0054.

These data come from the supplement of paper PMC10338343.
